Laboratory results taken from article PMC11589570, “Critical assessment of LC3/GABARAP ligands used for degrader development and ligandability of LC3/GABARAP binding pockets” (Nature Communications, 2024).
Where “and” joins values, the source holds several entries; their conditions need not be identical. Equal values may be shown once. The source gives many values for each of these; only a part stands here.

Test system: RPE1 cells
Assay: Cell growth assay (IncuCyte confluence over 72 h)
Assay type: cell-based
Summary of the method: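 Phase confluence (% area covered by cells) imaged every 2 h for 72 h after compound addition; cells in DMEM/10% FBS, seeded 24 h before treatment. Controls were 0.1% DMSO, 250 nM Torin1 and 200 ng/mL Bafilomycin (final). Each point averages three wells.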

With Cc1ccc(C)c(S(=O)(=O)Nc2cc(SCC(=O)O)c(O)c3ccccc23)c1 [compound 8] the RPE1 cell growth (100 nM, 14 h, listed as KT1) was 27 and 37 and 19, the RPE1 cell growth (100 nM, 16 h, listed as KT1) was 31 and 39 and 21 and the RPE1 cell growth (100 nM, 18 h, listed as KT1) was 32 and 43 and 22. For the same compound, the RPE1 cell growth (100 nM, 20 h, listed as KT1) was 33 and 47 and 24, the RPE1 cell growth (100 nM, 22 h, listed as KT1) was 33 and 48 and 25 and the RPE1 cell growth (100 nM, 24 h, listed as KT1) was 36 and 54 and 27. For the same compound, the RPE1 cell growth (100 nM, 26 h, listed as KT1) was 41 and 57 and 29, the RPE1 cell growth (100 nM, 30 h, listed as KT1) was 44 and 67 and 35 and the RPE1 cell growth (100 nM, 32 h, listed as KT1) was 50 and 71 and 37. For the same compound, the RPE1 cell growth (100 nM, 34 h, listed as KT1) was 52 and 76 and 42, the RPE1 cell growth (100 nM, 36 h, listed as KT1) was 57 and 80 and 42 and the RPE1 cell growth (100 nM, 38 h, listed as KT1) was 58 and 85 and 47. The RPE1 cell growth (100 nM, 40 h, listed as KT1) was 63 and 88 and 52, the RPE1 cell growth (100 nM, 42 h, listed as KT1) was 67 and 92 and 54 and the RPE1 cell growth (100 nM, 44 h, listed as KT1) was 72 and 95 and 59. The RPE1 cell growth (100 nM, 46 h, listed as KT1) was 73 and 96 and 65, the RPE1 cell growth (100 nM, 48 h, listed as KT1) was 78 and 98 and 67 and the RPE1 cell growth (100 nM, 50 h, listed as KT1) was 82 and 99 and 70. For the same compound, the RPE1 cell growth (100 nM, 52 h, listed as KT1) was 85 and 99 and 78, the RPE1 cell growth (100 nM, 54 h, listed as KT1) was 90 and 100 and 81 and the RPE1 cell growth (100 nM, 56 h, listed as KT1) was 91 and 100 and 85. For the same compound, the RPE1 cell growth (100 nM, 58 h, listed as KT1) was 95 and 100 and 90, the RPE1 cell growth (100 nM, 60 h, listed as KT1) was 97 and 100 and 93 and the RPE1 cell growth (100 nM, 62 h, listed as KT1) was 98 and 100 and 93. For the same compound, the RPE1 cell growth (100 nM, 64 h, listed as KT1) was 99 and 100 and 96, the RPE1 cell growth (100 nM, 66 h, listed as KT1) was 99 and 100 and 98 and the RPE1 cell growth (100 nM, 68 h, listed as KT1) was 100 and 98. The RPE1 cell growth (100 nM, 70 h, listed as KT1) was 100 and 99, the RPE1 cell growth (100 nM, 72 h) was 100 and the RPE1 cell growth (500 nM, 16 h, listed as KT1) was 33 and 48 and 25. The RPE1 cell growth (500 nM, 20 h, listed as KT1) was 35 and 56 and 29, the RPE1 cell growth (500 nM, 22 h, listed as KT1) was 35 and 60 and 30 and the RPE1 cell growth (500 nM, 24 h, listed as KT1) was 39 and 65 and 33. For the same compound, the RPE1 cell growth (500 nM, 30 h, listed as KT1) was 47 and 78 and 40, the RPE1 cell growth (500 nM, 32 h, listed as KT1) was 52 and 82 and 42 and the RPE1 cell growth (500 nM, 34 h, listed as KT1) was 56 and 86 and 46. For the same compound, the RPE1 cell growth (500 nM, 36 h, listed as KT1) was 60 and 90 and 48, the RPE1 cell growth (500 nM, 38 h, listed as KT1) was 65 and 93 and 54 and the RPE1 cell growth (500 nM, 40 h, listed as KT1) was 67 and 95 and 58. For the same compound, the RPE1 cell growth (500 nM, 42 h, listed as KT1) was 72 and 96 and 62, the RPE1 cell growth (500 nM, 44 h, listed as KT1) was 77 and 98 and 66 and the RPE1 cell growth (500 nM, 46 h, listed as KT1) was 80 and 99 and 70. For the same compound, the RPE1 cell growth (500 nM, 48 h, listed as KT1) was 83 and 99 and 76, the RPE1 cell growth (500 nM, 50 h, listed as KT1) was 88 and 100 and 79 and the RPE1 cell growth (500 nM, 52 h, listed as KT1) was 91 and 100 and 84. The RPE1 cell growth (500 nM, 54 h, listed as KT1) was 95 and 100 and 88, the RPE1 cell growth (500 nM, 56 h, listed as KT1) was 96 and 100 and 91 and the RPE1 cell growth (500 nM, 58 h, listed as KT1) was 98 and 100 and 95. For the same compound, the RPE1 cell growth (500 nM, 60 h, listed as KT1) was 99 and 100 and 96, the RPE1 cell growth (500 nM, 62 h, listed as KT1) was 99 and 100 and 97 and the RPE1 cell growth (500 nM, 64 h, listed as KT1) was 100 and 99. For the same compound, the RPE1 cell growth (500 nM, 66 h) was 100, the RPE1 cell growth (500 nM, 68 h) was 100 and the RPE1 cell growth (500 nM, 70 h) was 100. The RPE1 cell growth (500 nM, 72 h) was 100, the RPE1 cell growth (1 uM, 14 h, listed as KT1) was 32 and 41 and the RPE1 cell growth (1 uM, 16 h, listed as KT1) was 30 and 36 and 43. For the same compound, the RPE1 cell growth (1 uM, 18 h, listed as KT1) was 32 and 36 and 49, the RPE1 cell growth (1 uM, 20 h, listed as KT1) was 34 and 39 and 51 and the RPE1 cell growth (1 uM, 22 h, listed as KT1) was 37 and 39 and 54. The RPE1 cell growth (1 uM, 24 h, listed as KT1) was 40 and 43 and 59, the RPE1 cell growth (1 uM, 26 h, listed as KT1) was 42 and 46 and 63 and the RPE1 cell growth (1 uM, 28 h, listed as KT1) was 47 and 49 and 69. For the same compound, the RPE1 cell growth (1 uM, 30 h, listed as KT1) was 49 and 52 and 74, the RPE1 cell growth (1 uM, 32 h, listed as KT1) was 54 and 56 and 78 and the RPE1 cell growth (1 uM, 34 h, listed as KT1) was 58 and 61 and 80. The RPE1 cell growth (1 uM, 36 h, listed as KT1) was 61 and 65 and 85, the RPE1 cell growth (1 uM, 38 h, listed as KT1) was 66 and 68 and 88 and the RPE1 cell growth (1 uM, 40 h, listed as KT1) was 71 and 91. For the same compound, the RPE1 cell growth (1 uM, 42 h, listed as KT1) was 75 and 77 and 94, the RPE1 cell growth (1 uM, 44 h, listed as KT1) was 79 and 80 and 96 and the RPE1 cell growth (1 uM, 46 h, listed as KT1) was 85 and 83 and 97. For the same compound, the RPE1 cell growth (1 uM, 48 h, listed as KT1) was 88 and 98, the RPE1 cell growth (1 uM, 50 h, listed as KT1) was 91 and 90 and 99 and the RPE1 cell growth (1 uM, 52 h, listed as KT1) was 93 and 92 and 99. The RPE1 cell growth (1 uM, 54 h, listed as KT1) was 96 and 100, the RPE1 cell growth (1 uM, 56 h, listed as KT1) was 98 and 97 and 100 and the RPE1 cell growth (1 uM, 58 h, listed as KT1) was 99 and 100. For the same compound, the RPE1 cell growth (1 uM, 60 h, listed as KT1) was 99 and 100, the RPE1 cell growth (1 uM, 62 h, listed as KT1) was 99 and 100 and the RPE1 cell growth (1 uM, 64 h) was 100. It also gave an RPE1 cell growth (1 uM, 66 h) of 100, an RPE1 cell growth (1 uM, 68 h) of 100 and an RPE1 cell growth (1 uM, 70 h) of 100. The RPE1 cell growth (1 uM, 72 h) was 100 and the RPE1 cell growth (3 uM, 16 h, listed as KT1) was 34 and 44 and 32.
